Results on ten compounds are retold here after PubChem BioAssay AID306 (DTP/NCI, 2004).

The list is a part of this screen's results and no random one: it gathers tests that were run many times, whatever their T/C, doses with no T/C, and many T/C values between a quarter and a half above the control. Further doses and runs are listed elsewhere. T/C gives the treated animals as a percentage of the vehicle group. Some entries give survivors of the animals treated and no T/C: the source holds a T/C of zero for them, seemingly a mark for toxic or unscored doses. Some survivor counts are full or nearly so, which does not show that the dose was tolerated: survival well below the control is almost never listed, so the zero probably covers shortened survival too. Survivors were counted at the toxicity check, usually on the fifth day, unless a day is given; later deaths do not show. Schedules are NCI's codes, taken here to give the interval after Q, in days (D) or hours (H), and the number of doses after X. Some schedules carry Z or #; the key to these is not given. For survival time, this PubChem deposit counts one and a half times the control or more as active, and values a quarter to a half above the control carry no call in these data; other NCI protocols may use other cut-offs. *1 amine or outer side, *2 acyl side, *3 side chain or, on linkers, in order; H or OH if unused. Where a SMILES comes first, the peptide text is derived from it. Bridges are numbered along the chain shown (N, C = ends). Roman numbers before positions name the chains, in order. [ ]: non-standard residue; d: D form. Actinocin(9to1) = Cc1c2oc3c(C)ccc(C(=O)[*:1])c3nc-2c(C(=O)[*:2])c(N)c1=O; aThr = C[C@H](O)[C@H](N)C(=O)O; NMeV = CN[C@H](C(=O)O)C(C)C; Sar = CNCC(=O)O

This assay deals with BDF1 mice, L1210 Methyl-GAG-resistant leukemia, survival T/C. Kind of assay: NCI In Vivo Anticancer Drug Screen. Data for tumor model L1210 Leukemia resistant to Methyl-GAG; NSC 32946 (subcutaneous) in B6D2F1 (BDF1) mice. Particulars: T/C endpoint: mean survival time, higher T/C = longer survival. Here is the method: The antitumor activity of compounds was measured in mice bearing transplantable tumors. Survival or tumor size were measured and the results are expressed as the measurement made in the treated group (T) divided by the measurement made in the vehicle treated control group (C). The tumor model used in this assay is L1210 Leukemia resistant to Methyl-GAG; NSC 32946 (subcutaneous) in B6D2F1 (BDF1) mice

Where [1] appears, read: dose: 2.5 mg/kg/injection, schedule: Q01DX Z (ip), vehicle: other.

With `CN(Cc1cnc2nc(N)nc(N)c2n1)c1ccc(C(=O)N[C@@H](CCC(=O)O)C(=O)O)cc1`, under setting [1], the T/C was 140 % of control. For the same compound, the survivor count runs as follows: under setting [1], 6 of 6; (dose: 5.0 mg/kg/injection, schedule: Q01DX Z (ip), vehicle: other) 6 of 6; (dose: 7.0 mg/kg/injection, schedule: Q01DX Z (ip), vehicle: other) 6 of 6; (dose: 10.0 mg/kg/injection, schedule: Q01DX Z (ip), vehicle: other) 6 of 6.
For the compound `CCCNc1ncnc2[nH]ncc12`, the survivor count runs as follows: (dose: 80.0 mg/kg/injection, schedule: Q01DX Z (ip), vehicle: water) 5 of 6; (dose: 160.0 mg/kg/injection, schedule: Q01DX Z (ip), vehicle: water) 1 of 6.
Turning to `Cc1c2oc3c(C)ccc(C(=O)N[C@@H]4C(=O)N[C@H](C(C)C)C(=O)N5CCC[C@H]5C(=O)N(C)CC(=O)N(C)[C@@H](C(C)C)C(=O)O[C@H]4C)c3nc-2c(C(=O)N[C@@H]2C(=O)N[C@H](C(C)C)C(=O)N3CCC[C@H]3C(=O)N(C)CC(=O)N(C)[C@@H](C(C)C)C(=O)O[C@H]2C)c(N)c1=O` (I: [aThr][dV]P[Sar][NMeV] / II: [aThr][dV]P[Sar][NMeV]; ester I:1-I:C, II:1-II:C; linker I:N-II:N via Actinocin(9to1)), the survivor count is listed as 6 of 6 (dose: 12.8 micrograms/kg/injection, schedule: Q01DX Z (ip), vehicle: saline) and 6 of 6 (dose: 51.2 micrograms/kg/injection, schedule: Q01DX Z (ip), vehicle: saline).
Consider `Oc1cc(CN(CCCl)CCCl)c(O)cc1CN(CCCl)CCCl`, for which the survivor count (dose: 15.0 mg/kg/injection, schedule: Q01DX Z (sc), vehicle: steroid suspending solution) is 3 of 6.
Regarding `CCCCNc1ncnc2c1cnn2C`, the T/C by setting is: (dose: 16.0 mg/kg/injection, schedule: Q01DX Z (ip), vehicle: carboxymethylcellulose (CMC)) 128 % of control; (dose: 62.5 mg/kg/injection, schedule: Q01DX Z (ip), vehicle: carboxymethylcellulose (CMC)) 126 % of control. Further, the survivor count runs as follows: (dose: 125.0 mg/kg/injection, schedule: Q01DX Z (ip), vehicle: carboxymethylcellulose (CMC)) 6 of 6; (dose: 250.0 mg/kg/injection, schedule: Q01DX Z (ip), vehicle: carboxymethylcellulose (CMC)) 0 of 6.
As for `O=C(Nc1ccc(C2=NCCCN2)cc1)c1ccc(C(=O)Nc2ccc(C3=NCCCN3)cc2)cc1`, the survivor count is reported as 4 of 6 (dose: 6.3 mg/kg/injection, schedule: Q01DX Z (ip), vehicle: water) and 1 of 6 (dose: 12.5 mg/kg/injection, schedule: Q01DX Z (ip), vehicle: water).
As to `CCCCn1cnc2c(=S)nc[nH]c21`, the T/C was 125 % of control (dose: 50.0 mg/kg/injection, schedule: Q01DX Z (ip), vehicle: carboxymethylcellulose (CMC)) and 139 % of control (dose: 100.0 mg/kg/injection, schedule: Q01DX Z (ip), vehicle: carboxymethylcellulose (CMC)). Moreover, the survivor count (dose: 200.0 mg/kg/injection, schedule: Q01DX Z (ip), vehicle: carboxymethylcellulose (CMC)) is listed as 5 of 6.
`CCOC(=O)NP(=O)(N1CC1(C)C)N1CC1(C)C` (centres undefined): the survivor count (dose: 500.0 mg/kg/injection, schedule: Q01DX Z (ip), vehicle: carboxymethylcellulose (CMC)) is given as 4 of 6 and the survivor count (dose: 1000.0 mg/kg/injection, schedule: Q01DX Z (ip), vehicle: carboxymethylcellulose (CMC)) was 0 of 6.
On to `C[N+](C)(C)c1ncnc2nc[nH]c12`, for which the survivor count is given as 0 of 6 (dose: 400.0 mg/kg/injection, schedule: Q01DX Z (ip), vehicle: carboxymethylcellulose (CMC)) and 0 of 6 (dose: 800.0 mg/kg/injection, schedule: Q01DX Z (ip), vehicle: carboxymethylcellulose (CMC)).
Consider `O=P1(N(CCCl)CCCl)NCCCO1` (centres undefined), for which the T/C (dose: 6.25 mg/kg/injection, schedule: Q01DX Z (ip), vehicle: saline) was 146 % of control.
